Test results published in PubChem BioAssay AID651640 (Broad Institute, 2012).
In all, about 350,000 compounds went through this assay and about 6,000 (1.7%) were called active. The inconclusive results got no clear call from the source; some entries with a clear call stand among them for comparison. Cut-off read from the data, not from the text of the source: active = CPE inhibition above about 20% (passing the limit was not always enough); inconclusive = no clear call, values can overlap the other calls; tested in BHK-21 cells.

Test: protection of cells from dengue 2 killing – plate reader, single concentration, primary screen (AID 651640);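 note: 0% = median of neutral control wells and 100% = median of positive control wells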
Settings: DENV2-infected cells, cytopathic effect rescue, at 9.99 µM, active compounds read high

SMILES | CPE inhibition
Cc1cc(OCC(=O)NC(Cc2ccc(Cl)cc2)C(=O)O)c2c(C)c(C)c(=O)oc2c1 (stereo not given) | active: 91.9%
O=S(=O)(Oc1ccccc1C(=S)N1CCOCC1)c1ccc(Cl)cc1 | inconclusive: 38.4%
COc1cc(OC)cc(-c2c(-c3cccs3)c3cc(-c4ccc(OC)nc4)ccc3n2C)c1 | inconclusive: 55.1%
C[C@@H]1CCCCO[C@@H](CN(C)C(=O)C2CCCCC2)[C@H](C)CN([C@@H](C)CO)C(=O)c2cc(NC(=O)Nc3ccc(F)cc3)ccc2O1 | active: 24.7%
Cc1ccc(S(=O)(=O)N(C)C[C@H]2Oc3ccc(NS(=O)(=O)c4ccc(F)cc4)cc3C(=O)N([C@@H](C)CO)C[C@H]2C)cc1 | inconclusive: 33.8%
O=C(CSc1nnc(-c2ccccc2)c(-c2ccccc2)n1)NCC1CCCO1 (stereo not given) | inconclusive: 56.5%
CC(OC(=O)C1=Cc2ccccc2OC1)C(=O)NCC1CCCO1 (stereo not given) | inactive: 6.41%
CO/N=C/C(C#N)=C/c1cc(C(=O)c2ccccc2)cn1C | active: 46.3%
COc1ccc(NC(=O)C2C(c3ccc4c(c3)OCO4)=Nc3ccccc3N2C(C)=O)cc1 (stereo not given) | active: 27%
C[C@@H]1CCCCO[C@@H](CN(C)C(=O)c2ccccc2)[C@@H](C)CN([C@@H](C)CO)C(=O)c2cc(NS(=O)(=O)c3ccc(F)cc3)ccc2O1 | active: 121%
C[C@@H]1CCCCO[C@@H](CN(C)C(=O)Cc2ccccc2)[C@H](C)CN([C@@H](C)CO)C(=O)c2cc(NS(=O)(=O)c3ccc(Cl)cc3)ccc2O1 | inactive: 3.11%
Fc1cccc(/C=N/Nc2ccc3ccccc3n2)c1 | inconclusive: 42.6%
COc1cccc(C#Cc2ccc([C@@H]3[C@@H](C#N)N(C(=O)C4CC4)[C@H]3CO)cc2)c1 | active: 25.5%
Cc1ccn2c(NC3CCCCC3)c(-c3ccc(SC4CCCCC4)cc3)nc2c1 | active: 37.2%
CC(=O)c1cccc(NC(=O)COC(=O)c2cccc(N3C(=O)c4ccccc4C3=O)c2)c1 | inactive: -2.57%
CC1CC(C)CN(S(=O)(=O)c2ccc3oc(=O)ccc3c2)C1 (stereo not given) | inconclusive: 21.5%
C/C=C/c1ccc2c(c1)O[C@H](CN(C)C(=O)c1cnccn1)[C@H](C)CN([C@@H](C)CO)S2(=O)=O | inconclusive: 47%
COc1cc(CCNC(=O)CCCn2c(=O)c3cccn3c3cccnc32)cc(OC)c1OC | inconclusive: 21.3%
O=C(COC(=O)CC1CC2CCC1C2)NCc1ccc(Cl)cc1 (stereo not given) | inactive: -4.72%
CCOC(=O)N1CCN(C(=O)CSc2nnc(Cc3ccccc3)o2)CC1 | inconclusive: 49.4%

An excerpt from above in order of molecular weight, high to low.
SMILES | CPE inhibition
C/C=C/c1ccc2c(c1)O[C@H](CN(C)C(=O)c1cnccn1)[C@H](C)CN([C@@H](C)CO)S2(=O)=O | inconclusive: 47%
CC1CC(C)CN(S(=O)(=O)c2ccc3oc(=O)ccc3c2)C1 (stereo not given) | inconclusive: 21.5%
Fc1cccc(/C=N/Nc2ccc3ccccc3n2)c1 | inconclusive: 42.6%
